The record followed here is paper PMC7034063.

Chains of the proteins cited; added tags and fusions are not shown.
UniProt O88778: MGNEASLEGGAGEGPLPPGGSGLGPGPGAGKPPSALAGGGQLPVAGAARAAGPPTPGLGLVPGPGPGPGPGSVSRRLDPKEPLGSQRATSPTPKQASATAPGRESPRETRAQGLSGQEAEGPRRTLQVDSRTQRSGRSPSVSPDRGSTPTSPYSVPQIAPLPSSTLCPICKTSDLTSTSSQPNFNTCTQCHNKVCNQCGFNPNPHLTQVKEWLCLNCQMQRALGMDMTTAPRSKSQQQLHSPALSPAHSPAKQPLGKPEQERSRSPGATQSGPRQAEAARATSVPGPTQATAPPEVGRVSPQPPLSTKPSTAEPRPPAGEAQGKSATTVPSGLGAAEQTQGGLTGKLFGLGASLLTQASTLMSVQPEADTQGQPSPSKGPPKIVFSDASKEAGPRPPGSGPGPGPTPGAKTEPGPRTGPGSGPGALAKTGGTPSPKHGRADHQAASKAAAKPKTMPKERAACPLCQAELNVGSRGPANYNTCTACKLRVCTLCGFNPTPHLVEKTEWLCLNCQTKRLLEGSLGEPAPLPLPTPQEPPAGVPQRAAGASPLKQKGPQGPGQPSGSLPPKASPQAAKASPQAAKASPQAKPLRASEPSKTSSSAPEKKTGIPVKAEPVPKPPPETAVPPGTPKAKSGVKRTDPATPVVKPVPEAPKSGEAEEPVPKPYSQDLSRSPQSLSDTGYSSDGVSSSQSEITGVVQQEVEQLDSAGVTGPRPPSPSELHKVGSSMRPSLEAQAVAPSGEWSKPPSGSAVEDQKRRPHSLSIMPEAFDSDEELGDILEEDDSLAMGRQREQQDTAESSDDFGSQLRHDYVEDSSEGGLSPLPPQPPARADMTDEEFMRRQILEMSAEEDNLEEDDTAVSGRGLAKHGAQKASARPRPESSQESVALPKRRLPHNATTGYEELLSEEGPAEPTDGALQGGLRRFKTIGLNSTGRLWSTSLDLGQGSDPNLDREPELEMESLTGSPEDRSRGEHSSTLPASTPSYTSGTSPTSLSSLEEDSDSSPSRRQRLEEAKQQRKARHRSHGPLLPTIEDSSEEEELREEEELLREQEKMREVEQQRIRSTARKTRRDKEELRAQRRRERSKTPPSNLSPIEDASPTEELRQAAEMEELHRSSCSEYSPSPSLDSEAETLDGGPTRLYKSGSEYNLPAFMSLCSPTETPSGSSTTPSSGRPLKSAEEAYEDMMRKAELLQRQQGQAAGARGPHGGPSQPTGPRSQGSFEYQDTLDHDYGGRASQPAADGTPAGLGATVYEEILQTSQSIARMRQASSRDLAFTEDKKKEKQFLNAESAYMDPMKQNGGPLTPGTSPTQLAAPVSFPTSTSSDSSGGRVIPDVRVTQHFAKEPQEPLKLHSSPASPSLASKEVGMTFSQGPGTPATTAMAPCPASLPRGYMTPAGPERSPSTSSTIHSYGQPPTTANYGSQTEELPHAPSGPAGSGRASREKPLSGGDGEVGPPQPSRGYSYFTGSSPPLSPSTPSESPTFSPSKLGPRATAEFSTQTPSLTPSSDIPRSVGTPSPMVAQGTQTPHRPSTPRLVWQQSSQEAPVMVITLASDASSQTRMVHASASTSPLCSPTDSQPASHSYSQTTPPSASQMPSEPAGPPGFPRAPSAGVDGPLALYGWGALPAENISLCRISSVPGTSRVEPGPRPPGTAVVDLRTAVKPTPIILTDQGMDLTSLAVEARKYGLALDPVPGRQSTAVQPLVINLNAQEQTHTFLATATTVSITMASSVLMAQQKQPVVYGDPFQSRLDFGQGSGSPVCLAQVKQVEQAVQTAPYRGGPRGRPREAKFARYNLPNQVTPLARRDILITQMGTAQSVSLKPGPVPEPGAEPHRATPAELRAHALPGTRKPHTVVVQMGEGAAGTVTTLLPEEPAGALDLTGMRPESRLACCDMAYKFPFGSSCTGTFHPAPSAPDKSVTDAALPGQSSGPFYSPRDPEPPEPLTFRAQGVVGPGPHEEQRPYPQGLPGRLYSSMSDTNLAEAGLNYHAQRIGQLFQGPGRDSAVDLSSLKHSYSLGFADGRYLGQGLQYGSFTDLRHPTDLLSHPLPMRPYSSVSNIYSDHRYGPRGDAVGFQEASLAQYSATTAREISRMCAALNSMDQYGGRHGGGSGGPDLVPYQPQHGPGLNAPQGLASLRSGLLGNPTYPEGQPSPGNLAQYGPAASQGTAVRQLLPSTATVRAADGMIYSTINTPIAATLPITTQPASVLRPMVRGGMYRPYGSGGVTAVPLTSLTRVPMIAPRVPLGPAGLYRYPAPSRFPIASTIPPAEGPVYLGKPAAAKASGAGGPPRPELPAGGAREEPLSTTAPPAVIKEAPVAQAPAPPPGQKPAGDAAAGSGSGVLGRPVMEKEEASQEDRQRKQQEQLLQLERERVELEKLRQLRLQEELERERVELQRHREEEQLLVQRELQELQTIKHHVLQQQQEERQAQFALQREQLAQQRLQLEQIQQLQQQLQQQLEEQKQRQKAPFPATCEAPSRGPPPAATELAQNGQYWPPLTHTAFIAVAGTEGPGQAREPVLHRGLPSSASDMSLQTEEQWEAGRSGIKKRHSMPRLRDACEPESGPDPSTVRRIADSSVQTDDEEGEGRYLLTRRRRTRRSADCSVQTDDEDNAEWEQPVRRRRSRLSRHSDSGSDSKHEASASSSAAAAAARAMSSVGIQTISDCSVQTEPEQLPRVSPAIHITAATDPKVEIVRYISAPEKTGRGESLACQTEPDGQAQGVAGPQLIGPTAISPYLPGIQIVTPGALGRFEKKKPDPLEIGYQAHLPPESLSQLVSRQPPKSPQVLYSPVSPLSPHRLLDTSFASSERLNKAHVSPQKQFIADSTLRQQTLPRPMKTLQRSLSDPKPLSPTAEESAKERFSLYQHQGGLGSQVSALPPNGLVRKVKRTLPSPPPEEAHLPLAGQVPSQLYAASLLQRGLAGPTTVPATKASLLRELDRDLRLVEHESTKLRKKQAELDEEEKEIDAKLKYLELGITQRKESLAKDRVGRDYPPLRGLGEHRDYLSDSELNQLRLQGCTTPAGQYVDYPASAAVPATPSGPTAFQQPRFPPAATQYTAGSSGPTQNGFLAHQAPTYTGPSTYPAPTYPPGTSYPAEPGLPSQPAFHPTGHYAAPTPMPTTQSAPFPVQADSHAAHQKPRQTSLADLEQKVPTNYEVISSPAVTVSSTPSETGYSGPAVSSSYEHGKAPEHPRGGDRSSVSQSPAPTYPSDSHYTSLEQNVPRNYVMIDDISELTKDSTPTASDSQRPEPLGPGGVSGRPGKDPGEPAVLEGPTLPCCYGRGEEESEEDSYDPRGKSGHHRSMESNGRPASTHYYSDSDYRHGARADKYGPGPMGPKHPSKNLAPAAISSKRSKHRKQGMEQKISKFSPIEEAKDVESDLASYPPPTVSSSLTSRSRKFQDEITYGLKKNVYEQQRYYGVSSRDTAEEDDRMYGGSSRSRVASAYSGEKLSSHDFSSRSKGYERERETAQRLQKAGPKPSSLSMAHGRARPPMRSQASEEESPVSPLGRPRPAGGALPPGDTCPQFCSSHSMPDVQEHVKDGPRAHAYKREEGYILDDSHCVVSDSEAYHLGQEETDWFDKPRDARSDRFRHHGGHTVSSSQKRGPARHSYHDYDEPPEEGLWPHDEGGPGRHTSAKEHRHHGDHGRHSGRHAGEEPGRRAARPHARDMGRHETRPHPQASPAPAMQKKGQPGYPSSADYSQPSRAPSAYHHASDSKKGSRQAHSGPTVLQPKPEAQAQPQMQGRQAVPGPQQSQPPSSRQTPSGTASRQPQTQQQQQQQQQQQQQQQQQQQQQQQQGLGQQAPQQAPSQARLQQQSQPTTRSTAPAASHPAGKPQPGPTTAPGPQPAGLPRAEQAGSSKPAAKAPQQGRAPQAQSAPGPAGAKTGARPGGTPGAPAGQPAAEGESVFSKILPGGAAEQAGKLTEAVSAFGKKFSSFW

No constants are given. Whether binding was seen depends on the method and setting. In cells and extracts the contact can be indirect. Some binding calls cover weakened binding; strength is not graded here.

For assay [1], the target named is EGFP-CtBP1 (EGFP-tagged C-terminal binding protein 1, CtBP1-S) (UniProt Q9Z2F5). As to the kind of experiment: co-IP; as a1, but the neurons were treated with the Pak1 inhibitor IPA3 (50 μM, 1 h) before lysis.
For assay [2] the target is unchanged. Put plainly: co-IP; basal state; EGFP-CtBP1 precipitated with MicroMACS anti-GFP MicroBeads from lysates of cortical neurons (DIV16); lysis in 10mM Tris-HCl, 150mM NaCl, 2% SDS, 1% deoxycholate, 1% Triton X-100 with protease inhibitors and PhosStop; western blot.
Assay [3] has the same target. The assay is described as above. This is another data set of the same source.
The target is the same in assay [4]. As to the kind of experiment: condition: only neurons treated with the Pak1 inhibitor IPA3 (50 μM, 1 h); co-IP; as a1, but the neurons were treated with the Pak1 inhibitor IPA3 (50 μM, 1 h) before lysis.

In the case of “bassoon (Bsn) (from UniProt O88778 1-3938)”, the figures for the binding entry in assay [1] and in assay [2] were “binds” and “binds weakly”, respectively.

B1: Phospholipase D1 (PLD1) (enzyme, UniProt P70496 1-1074)
chain: MSLRSEARVNTSTLQKIAADMSNLIENLDTRELHFEGEEVEYDASPGDPTAQEACIPFSSIYNTQGFKEPNIQIYLSGCPVKAQVLEVERFTSTSRMPSVNLYTIELTHGEFTWQVKRKFKHFQEFHRELLKYKAFIRIPIPTKRHTFRRQNVKEEPREMPSLPRSSENAIQEEQFFGRRKQLEDYLTKILKMPMYRNYHATTEFLDVSQLSFIHDLGPKGLEGMIMKRSGGHRIPGVNCCGHGRACYRWSKRWLIVKDSFLLYMKPDSGAIAFVLLVDKEFRIKVGKKETETKYGLRIDNLSRTLILKCNSYRHARWWGGAIEEFIQKHGTDFLKDHRFGSYAAVHENILAKWYVNAKGYFEDIANAMEGATEEIFITDWWLSPEIFLKRPVVEGNRWRLDCILKRKAQQGVRIFIMLYKEVELALGINSEYTKRTLMRLHPNIKVMRHPDHVSSSVYLWAHHEKLVIIDQSVAFVGGIDLAYGRWDDNEHRLTDVGSVKRVTSGQSLGSLTAASVESMESLSLKDKHQSHKNEPVLKSVNDTDMKLKGIGKSRKFSKFSLYRQLHRRNLHNSDSISSVDSASSYFNHYRSHQNLIHGIKPHLKLFRPSSESEQGLTRHSADTGSIRSVQTGVGELHGETRFWHGKDYCNFVFKDWVQLDKPFADFIDRYSTPRMPWHDIGSVVHGKAARDVARHFIQRWNFTKIMKPKYRSLSYPFLLPKSQATAHELRYQVPGAVHAKAQLLRSAADWSAGIKHHEESIHAAYTHVIENSKHYIYIENQFFISCADDKVVFNKVGNAIAQRILKAHREGQRYRVYIVIPLLPGFEGDISTGGGNALQAIMHFNYRTMCRGESSILEQLKPELGNKWINYISFCGLRTHAELEGNLVTELIYVHSKLLIADDNTVIIGSANINDRSMLGKRDSEMAVIVQDTETVPSVMDGKEYQAGRFAQGLRLECFRLVLGYLSDPSEDIQDPVSDKFFKEIWVSTAARNATIYDKVFRCLPNDEVHNLIQLRDFINKPILAKEDRLRAEEELRKIRGFLVQFPFYFLSEENLLPSVGTKEAIVPMEVWT
Turning to B1, the binding entry is listed as “binds” in assay [3] and “no binding” in assay [4].
